Experimental data published in the supplement of paper PMC10331698.
± gives the standard deviation of the averaged measurements. Most values lie at the level of the controls, where differences are scatter.

Tests used:
Experiment in all cases: level (log10 ratio to DMSO vehicle control); higher = higher biomarker level / cell amount than vehicle control
[1] = compound: CC(C)(C)C(=O)CC(=O)C(F)(F)C(F)(F)C(F)(F)F [(Heptafluorobutanoyl)pivaloylmethane]; details: 2200 nM; in DMSO
Experimental: (§1)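 BioMAP Diversity Plus panel of 12 human primary cell co-culture systems (3C, 4H, LPS, SAg, BT, BF4T, BE3C, CASM3C, HDF3CGF, KF3CT, MyoF, Mphg). Compounds were added 1 h before stimulation and left for 24 h (MyoF 48 h; BT 72 h for soluble read-outs or 6 d for IgG). Biomarkers were read by ELISA, cytotoxicity by SRB, PBMC viability and proliferation by Alamar Blue. Each well value was divided by the mean of 8 DMSO control wells on the same plate and log10 transformed; duplicate blinded samples were tested at 4 concentrations.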

[2] = compound: CCCCCCCCC(F)(F)C(F)(F)C(F)(F)C(F)(F)C(F)(F)C(F)(F)F [1-(Perfluorohexyl)octane]; details: in DMSO
Experimental: as §1

[3] = compound: CCN(CCO)S(=O)(=O)C(F)(F)C(F)(F)C(F)(F)C(F)(F)C(F)(F)C(F)(F)C(F)(F)C(F)(F)F [N-Ethyl-N-(2-hydroxyethyl)perfluorooctanesulfonamide]; details: in DMSO
Experimental: as §1

[4] = compound: CN(C(=O)C(F)(F)C(F)(F)C(F)(F)F)[Si](C)(C)C [N-Methyl-N-trimethylsilylheptafluorobutyramide]; details: 2200 nM; in DMSO
Experimental: as §1

[5] = compound: Cc1ccc(S(=O)(=O)OCC(F)(F)C(F)(F)C(F)(F)C(F)(F)C(F)(F)C(F)F)cc1 [1H,1H,7H-Perfluoroheptyl 4-methylbenzenesulfonate]; details: 2200 nM; in DMSO
Experimental: as §1

[6] = compound: FC(F)(F)C(F)(F)C(F)(F)C(F)(F)C(F)(F)C(F)(F)CC1CO1 [3-(Perfluorohexyl)-1,2-epoxypropane]; details: 2200 nM; in DMSO
Experimental: as §1

[7] = compound: NC(=O)C(F)(F)C(F)(F)C(F)(F)F [Heptafluorobutyramide]; details: 2200 nM; in DMSO
Experimental: as §1

[8] = compound: NCC(F)(F)C(F)(F)C(F)(F)C(F)(F)C(F)(F)C(F)(F)C(F)(F)F [1H,1H-Perfluorooctylamine]; details: 2200 nM; in DMSO
Experimental: as §1

[9] = compound: O=C(O)C(F)(F)C(F)(F)C(F)(F)C(F)(F)C(=O)O [Octafluoroadipic acid]; details: 2200 nM; in DMSO
Experimental: as §1

[10] = compound: O=C(O)C(F)(F)C(F)(F)C(F)(F)C(F)(F)C(F)(F)C(F)(F)C(F)(F)C(F)(F)C(F)(F)C(F)F [11-H-Perfluoroundecanoic acid]; details: 2200 nM; in DMSO
Experimental: as §1

[11] = compound: O=C(O)C(F)(F)C(F)(F)C(F)(F)C(F)(F)C(F)(F)C(F)(F)F [Perfluoroheptanoic acid]; details: in DMSO
Experimental: as §1

[12] = compound: O=C(O)C(F)(F)C(F)(F)C(F)(F)C(F)(F)F [Perfluoropentanoic acid]; details: in DMSO
Experimental: as §1

[13] = compound: O=C(O)C(F)(F)C(F)(F)C(F)(F)OC(F)(F)F [Perfluoro(4-methoxybutanoic) acid]; details: 2200 nM; in DMSO
Experimental: as §1

[14] = compound: O=S(=O)(O)CCC(F)(F)C(F)(F)C(F)(F)C(F)(F)C(F)(F)C(F)(F)C(F)(F)C(F)(F)F [8:2 Fluorotelomer sulfonic acid]; details: in DMSO
Experimental: as §1

[15] = compound: OCC(F)(F)C(F)(F)C(F)(F)F [1H,1H-Heptafluorobutanol]; details: 2200 nM; in DMSO
Experimental: as §1

[16] = compound: OCCC(F)(F)C(F)(F)C(F)(F)C(F)(F)C(F)(F)C(F)(F)F [6:2 Fluorotelomer alcohol]; details: 2200 nM; in DMSO
Experimental: as §1

Test System	level (log10) [1]	level (log10) ([2]; 740 nM)	level (log10) ([2]; 2200 nM)	level (log10) ([3]; 2200 nM)	level (log10) ([3]; 6700 nM)	level (log10) ([3]; 20000 nM)	level (log10) [4]	level (log10) [5]	level (log10) [6]	level (log10) [7]	level (log10) [8]	level (log10) [9]	level (log10) [10]	level (log10) ([11]; 2200 nM)	level (log10) ([11]; 6700 nM)	level (log10) ([11]; 20000 nM)	level (log10) ([11]; 60000 nM)	level (log10) ([12]; 2200 nM)	level (log10) ([12]; 6700 nM)	level (log10) ([12]; 20000 nM)	level (log10) ([12]; 60000 nM)	level (log10) [13]	level (log10) ([14]; 2200 nM)	level (log10) ([14]; 6700 nM)	level (log10) ([14]; 20000 nM)	level (log10) ([14]; 60000 nM)	level (log10) [15]	level (log10) [16]
SAg:CCL2/MCP-1	0.0015 ± 0.03	-0.0025 ± 0.042	-0.011 ± 0.0014	-0.017 ± 0.0014	-0.0055 ± 0.005	-0.091 ± 0.023	0.001 ± 0.034	0.0085 ± 0.029	-0.0025 ± 0.013	0.012 ± 0.03	-0.0195 ± 0.0035	0.0105 ± 0.044	0.0065 ± 0.033	0.01 ± 0.0014	-0.013 ± 0.0085	0.0215 ± 0.011	0.0215 ± 0.013	-0.003 ± 0.023	0.0085 ± 0.021	-0.0205 ± 0.011	0.023 ± 0.031	0.0295 ± 0.032	0.018 ± 0.0057	-0.0035 ± 0.019	0 ± 0.0099	-0.0025 ± 0.0078	0.0195 ± 0.0092	0.0135 ± 0.032
SAg:CD38	0.057 ± 0.071	0.0105 ± 0.046	0.002 ± 0.027	-0.0025 ± 0.036	-0.027 ± 0.017	-0.0955 ± 0.012	0.015 ± 0.048	0.013 ± 0.021	0.01 ± 0.017	-0.017 ± 0.017	-0.0075 ± 0.032	-0.023 ± 0.04	0.0015 ± 0.044	-0.0035 ± 0.018	-0.02 ± 0.0042	-0.001 ± 0.0057	-0.0225 ± 0.03	-0.0115 ± 0.019	0.003 ± 0.017	0.0015 ± 0.011	0.002 ± 0.0057	-0.01 ± 0.016	0.008 ± 0.033	-0.0175 ± 0.04	-0.02 ± 0.034	-0.0595 ± 0.053	-0.0025 ± 0.07	0.012 ± 0.021
SAg:CD40	0.017 ± 0.064	-0.0395 ± 0.018	-0.0155 ± 0.0064	-0.0105 ± 0.0092	0 ± 0.028	-0.052 ± 0.023	-0.036 ± 0.034	-0.029 ± 0.0071	-0.0095 ± 0.012	-0.0075 ± 0.015	-0.011 ± 0.02	-0.0145 ± 0.005	-0.003 ± 0.021	-0.009 ± 0.016	-0.015 ± 0.027	-0.006 ± 0.0028	-0.021 ± 0.018	-0.007 ± 0.021	0.0105 ± 0.005	0.0025 ± 0.0064	-0.001 ± 0.025	-0.011 ± 0.0099	-0.015 ± 0.047	-0.013 ± 0.051	-0.0215 ± 0.021	-0.071 ± 0.051	0.0025 ± 0.015	-0.0015 ± 0.013
